These are yes or no findings as the source states them, for the method shown. Binding seen in cells or lysates may run through a third protein. These calls come from enrichment with a bait or labelling near it, and not all partners need be listed.
T1: native KCC2 (K+-Cl- cotransporter KCC2) (mouse (endogenous in brain)) (UniProt Q91V14)
T1 sequence: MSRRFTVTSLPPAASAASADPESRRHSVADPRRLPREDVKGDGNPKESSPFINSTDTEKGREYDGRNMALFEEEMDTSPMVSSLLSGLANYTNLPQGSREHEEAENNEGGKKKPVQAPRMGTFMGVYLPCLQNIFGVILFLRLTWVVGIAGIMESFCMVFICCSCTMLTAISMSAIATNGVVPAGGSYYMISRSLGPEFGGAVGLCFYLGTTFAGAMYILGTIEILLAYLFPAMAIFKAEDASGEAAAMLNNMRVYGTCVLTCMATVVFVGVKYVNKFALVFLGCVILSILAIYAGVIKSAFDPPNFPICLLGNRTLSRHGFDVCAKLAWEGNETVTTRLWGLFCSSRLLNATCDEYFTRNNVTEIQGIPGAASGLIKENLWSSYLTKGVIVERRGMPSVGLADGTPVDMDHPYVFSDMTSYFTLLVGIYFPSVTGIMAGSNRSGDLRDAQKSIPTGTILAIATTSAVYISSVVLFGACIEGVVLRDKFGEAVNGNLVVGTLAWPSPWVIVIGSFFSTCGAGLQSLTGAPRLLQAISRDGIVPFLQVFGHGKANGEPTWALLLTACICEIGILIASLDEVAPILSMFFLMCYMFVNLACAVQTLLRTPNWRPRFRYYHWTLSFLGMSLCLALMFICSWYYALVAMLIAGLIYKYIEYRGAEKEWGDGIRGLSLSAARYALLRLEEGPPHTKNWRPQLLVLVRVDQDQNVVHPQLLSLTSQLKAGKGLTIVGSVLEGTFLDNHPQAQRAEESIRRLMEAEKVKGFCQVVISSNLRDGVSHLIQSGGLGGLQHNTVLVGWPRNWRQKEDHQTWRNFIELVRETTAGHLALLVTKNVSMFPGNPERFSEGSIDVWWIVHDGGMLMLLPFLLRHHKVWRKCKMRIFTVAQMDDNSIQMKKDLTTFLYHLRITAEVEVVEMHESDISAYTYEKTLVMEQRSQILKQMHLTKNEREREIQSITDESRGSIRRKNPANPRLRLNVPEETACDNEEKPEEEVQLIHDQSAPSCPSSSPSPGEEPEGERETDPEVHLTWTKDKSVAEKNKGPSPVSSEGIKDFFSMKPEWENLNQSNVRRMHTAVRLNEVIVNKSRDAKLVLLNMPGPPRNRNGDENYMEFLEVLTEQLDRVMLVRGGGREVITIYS


Target: T1, native KCC2 (K+-Cl- cotransporter KCC2) (mouse (endogenous in brain))
Experiment: affinity purification with mass spectrometry; anti-KCC2 antibodies (C-terminal, N-terminal KCC2b, pS940) cross-linked with DMP to GammaBind IgG beads; C12E9-solubilised whole-brain membrane fractions of P5 and P50 mice; 4 hr, 4°C; parallel IgG/IgY controls

Binder	binding
CMPK1 (protein, UniProt Q9DBP5 1-196) MKPLVVFVLGGPGAGKGTQCARIVEKYGYTHLSAGELLRDERKNPDSQYGELIEKYIKEGKIVPVEITISLLKREMDQTMAANAQKNKFLIDGFPRNQDNLQGWNKTMDGKADVSFVLFFDCNNEICIERCLERGKSSGRSDDNRESLEKRIQTYLESTKPIIDLYEEMGKVKKIDASKSVDEVFGEVVKIFDKEG	binds
CTNNA2 (protein, UniProt Q61301 1-953) MTSATSPIILKWDPKSLEIRTLTVERLLEPLVTQVTTLVNTSNKGPSGKKKGRSKKAHVLAASVEQATQNFLEKGEQIAKESQDLKEELVAAVEDVRKQGETMRIASSEFADDPCSSVKRGTMVRAARALLSAVTRLLILADMADVMRLLSHLKIVEEALEAVKNATNEQDLANRFKEFGKEMVKLNYVAARRQQELKDPHCRDEMAAARGALKKNATMLYTASQAFLRHPDVAATRANRDYVFKQVQEAIAGISSAAQATSPTDEAKGHTGIGELAAALNEFDNKIILDPMTFSEARFRPSLEERLESIISGAALMADSSCTRDDRRERIVAECNAVRQALQDLLSEYMNNTGRKEKGDPLNIAIDKMTKKTRDLRRQLRKAVMDHISDSFLETNVPLLVLIEAAKSGNEKEVKEYAQVFREHANKLVEVANLACSISNNEEGVKLVRMAATQIDSLCPQVINAALTLAARPQSKVAQDNMDVFKDQWEKQVRVLTEAVDDITSVDDFLSVSENHILEDVNKCVIALQEGDVDTLDRTAGAIRGRAARVIHIINAEMENYEAGVYTEKVLEATKLLSETVMPRFAEQVEVAIEALSANVPQPFEENEFIDASRLVYDGVRDIRKAVLMIRTPEELEDDSDFEQEDYDVRSRTSVQTEDDQLIAGQSARAIMAQLPQEEKAKIAEQVEIFHQEKSKLDAEVAKWDDSGNDIIVLAKQMCMIMMEMTDFTRGKGPLKNTSDVINAAKKIAEAGSRMDKLARAVADQCPDSACKQDLLAYLQRIALYCHQLNICSKVKAEVQNLGGELIVSGTGVQSTFTTFYEVDCDVIDGGRASQLSTHLPTCAEGAPIGSGSSDSSMLDSATSLIQAAKNLMNAVVLTVKASYVASTKYQKVYGTAAVNSPVVSWKMKAPEKKPLVKREKPEEFQTRVRRGSQKKHISPVQALSEFKAMDSF	binds
APBA1 (protein, UniProt B2RUJ5 1-842) MNHLEGSAEVEVADEAPGGEVNESVEADLEHPEVVEGQQPSPSPPPPAGHEPEDHRGHPAPPPPPPPQEEEEEERGECLARSASTESGFHNHTDTAEGDVLAAARDGYEAERAQDADDESAYAVQYRPEAEEYTEQAEAEHVEAAQRRALPNHLHFHSLEHEEAMNAAYSGYVYTHRLFHRAEDEPYAEPYADYGGLQEHVYEEIGDAPELEARDGLRLYERERDEAAAYRQEALGARLHHYDERSDGESDSPEKEAEFAPYPRMDSYEQEEDIDQIVAEVKQSMSSQSLDKAAEDMPEAEQDLERAPTPGGGHPDSPGLPAPAGQQQRVVGTPGGSEVGQRYSKEKRDAISLAIKDIKEAIEEVKTRTIRSPYTPDEPKEPIWVMRQDISPTRDCDDQRPVDGDSPSPGSSSPLGAESSSIPLHPGDPTEASTNKESRKSLASFPTYVEVPGPCDPEDLIDGIIFAANYLGSTQLLSDKTPSKNVRMMQAQEAVSRIKTAQKLAKSRKKAPEGESQPMTEVDLFISTQRIKVLNADTQEPMMDHPLRTISYIADIGNIVVLMARRRMPRSNSQENVEASHPSQDGKRQYKMICHVFESEDAQLIAQSIGQAFSVAYQEFLRANGINPEDLSQKEYSDLLNTQDMYNDDLIHFSKSENCKDVFIEKQKGEILGVVIVESGWGSILPTVIIANMMHGGPAEKSGKLNIGDQIMSINGTSLVGLPLSTCQSIIKGLKNQSRVKLNIVRCPPVTTVLIRRPDLRYQLGFSVQNGIICSLMRGGIAERGGVRVGHRIIEINGQSVVATPHEKIVHILSNAVGEIHMKTMPAAMYRLLTAQEQPVYI	binds
CRTC1 (protein, UniProt Q68ED7 1-630) MATSNNPRKFSEKIALHNQKQAEETAAFEEVMKDLSLTRAARLQLQKSQYLQLGPSRGQYYGGSLPNVNQIGSSSVDLAFQTPFQSSGLDTSRTTRHHGLVDRVYRERGRLGSPHRRPLSVDKHGRQADSCPYGTVYLSPPADTSWRRTNSDSALHQSTMTPSQAESFTGGSQDAHQKRVLLLTVPGMEDTGAETDKTLSKQSWDSKKAGSRPKSCEVPGINIFPSADQENTTALIPATHNTGGSLPDLTNIHFPSPLPTPLDPEEPPFPALTSSSSTGSLAHLGVGGAGQGMNTPSSSPQHRPAVVSPLSLSTEARRQQAQQVSPTLSPLSPITQAVAMDALSLEQQLPYAFFTQTGSQQPPPQPQPPPPPPPVSQQQPPPPQVSVGLPQGGPLLPSASLTRGPQLPPLSVTVPSTLPQSPTENPGQSPMGIDATSAPALQYRTSAGSPATQSPTSPVSNQGFSPGSSPQHTSTLGSVFGDAYYEQQMTARQANALSRQLEQFNMMENAISSSSLYNPGSTLNYSQAAMMGLSGSHGGLQDPQQLGYTGHGGIPNIILTVTGESPPSLSKELSSTLAGVSDVSFDSDHQFPLDELKIDPLTLDGLHMLNDPDMVLADPATEDTFRMDRL	binds

More lines, now with the values ahead:

binding	Binder
binds	FLII (protein, UniProt Q9JJ28 1-1271) MEATGVLPFVRGVDLSGNDFKGGYFPENVKAMTSLRWLKLNRTGLCYLPEELAALQKLEHLSVSHNHLTTLHGELSSLPSLRAIVARANSLKNSGVPDDIFKLDDLSVLDLSHNQLTECPRELENAKNMLVLNLSHNGIDSIPNQLFINLTDLLYLDLSENRLESLPPQMRRLVHLQTLVLNGNPLLHAQLRQLPAMMALQTLHLRNTQRTQSNLPTSLEGLSNLSDVDLSCNDLTRVPECLYTLPSLRRLNLSSNQIAELSLCIDQWVHLETLNLSRNQLTSLPSAICKLTKLKKLYLNSNKLDFDGLPSGIGKLTSLEEFMAANNNLELIPESLCRCPKLKKLVLNKNRLVTLPEAIHFLTEIQVLDVRENPSLVMPPKPADRTAEWYNIDFSLQNQLRLAGASPATVAAAAAVGSGSKDPLARKMRLRRRKDSAQDVQAKQVLKGMSDVAQEKNKNQEESIDARAPGGKVRRWDQGLEKPRLDYSEFFTEDVGQLPGLTIWQIENFVPVLVEEAFHGKFYEADCYIVLKTFLDDSGSLNWEIYYWIGGEATLDKKACSAIHAVNLRNYLGAECRTVREEMGDESEEFLQVFDNDISYIEGGTASGFYTVEDTHYVTRMYRVYGKKNIKLEPVPLKGSSLDPRFVFLLDQGLDIYVWRGAQATLSNTTKARLFAEKINKNERKGKAEITLLVQGQEPPGFWDVLGGEPSEIKNHVPDDFWPPQPKLYKVGLGLGYLELPQINYKLSVEHKKRPKVELMPGMRLLQSLLDTRCVYILDCWSDVFIWLGRKSPRLVRAAALKLGQELCGMLHRPRHTVVSRSLEGTEAQVFKAKFKNWDDVLTVDYTRNAEAVLQGQGLSGKVKRDTEKTDQMKADLTALFLPRQPPMPLAEAEQLMEEWNEDLDGMEGFVLEGRKFTRLPEEEFGHFYTQDCYVFLCRYWVPVEYEEEEKTEDKEGKASAEAREGEEAAAEAEEKQPEEDFQCIVYFWQGREASNMGWLTFTFSLQKKFESLFPGKLEVVRMTQQQENPKFLSHFKRKFIIHRGKRKVTQGTLQPTLYQIRTNGSALCTRCIQINTDSSLLNSEFCFILKVPFESEDNQGIVYAWVGRASDPDEAKLAEDILNTMFDASYSKQVINEGEEPENFFWVGIGAQKPYDDDAEYMKHTRLFRCSNEKGYFAVTEKCSDFCQDDLADDDIMLLDNGQEVYMWVGTQTSQVEIKLSLKACQVYIQHTRSKEHERPRRLRLVRKGNEQRAFTRCFHAWSTFRQAPA
binds	FXYD7 (protein, UniProt P59648 1-80) MATPTQSPTNVPEETDPFFYDYATVQTVGMTLATIMFVLGIIIILSKKVKCRKADSRSESPTCKSCKSELPSSAPGGGGV
binds	GRID2 (protein, UniProt Q61625 24-1007) DSIIHIGAIFDESAKKDDEVFRTAVGDLNQNEEILQTEKITFSVTFVDGNNPFQAVQEACELMNQGILALVSSIGCTSAGSLQSLADAMHIPHLFIQRSTAGTPRSGCGLTRSNRNDDYTLSVRPPVYLNEVILRVVTEYAWQKFIIFYDSEYDIRGIQEFLDKVSQQGMDVALQKVENNINKMITTLFDTMRIEELNRYRDTLRRAILVMNPATAKSFISEVVETNLVAFDCHWIIINEEINDVDVQELVRRSIGRLTIIRQTFPVPQNISQRCFRGNHRISSSLCDPKDPFAQNMEISNLYIYDTVLLLANAFHKKLEDRKWHSMASLSCIRKNSKPWQGGRSMLETIKKGGVNGLTGDLEFGENGGNPNVHFEILGTNYGEELGRGVRKLGCWNPVTGLNGSLTDKKLENNMRGVVLRVVTVLEEPFVMVSENVLGKPKKYQGFSIDVLDALSNYLGFNYEIYVAPDHKYGSPQEDGTWNGLVGELVFKRADIGISALTITPDRENVVDFTTRYMDYSVGVLLRRAEKTVDMFACLAPFDLSLWACIAGTVLLVGLLVYLLNWLNPPRLQMGSMTSTTLYNSMWFVYGSFVQQGGEVPYTTLATRMMMGAWWLFALIVISSYTANLAAFLTITRIESSIQSLQDLSKQTDIPYGTVLDSAVYQHVRMKGLNPFERDSMYSQMWRMINRSNGSENNVLESQAGIQKVKYGNYAFVWDAAVLEYVAINDPDCSFYTVGNTVADRGYGIALQHGSPYRDVFSQRILELQQSGDMDILKHKWWPKNGQCDLYSSVDAKQKGGALDIKSLAGVFCILAAGIVLSCLIAVLETWWSRRKGSRVPSKEDDKEIDLEHLHRRVNSLCTDDDSPHKQFSTSSIDLTPLDIDTLPTRQALEQISDFRNTHITTTTFIPEQIQTLSRTLSAKAASGFAFGSVPEHRTGPFRHRAPNGGFFRSPIKTMSSIPYQPTPTLGLNLGNDPDRGTSI

Reference: article PMC5640428
